# Results as given in patent US20160228506A1, “Compositions and Formulations for Prevention and Reduction of Tumorigenesis, Cancer Cell Proliferation and Invasion, and Methods of Production and Use Thereof in Cancer Treatment” (PRONUTRIA, INC., priority 2013, published 2016).
# Assay: Secreted protein level from Bacillus subtilis by chip electrophoresis
# Settings: for SEQID-00103 mg/l/OD: secreted SEQID-00103 fused to the signal peptide; for SEQID-00103 mg/l/OD / SEQID-00105 mg/l/OD / SEQID-00338 mg/l/OD / SEQID-00341 mg/l/OD / SEQID-00352 mg/l/OD: B. subtilis leader peptide library; for SEQID-00105 mg/l/OD: secreted SEQID-00105 fused to the signal peptide; for SEQID-00338 mg/l/OD: secreted SEQID-00338 fused to the signal peptide; for SEQID-00341 mg/l/OD: secreted SEQID-00341 fused to the signal peptide; for SEQID-00352 mg/l/OD: secreted SEQID-00352 fused to the signal peptide
substance,measurement,setting,value
3921 (MKKKKTWKRFLHFSSAALAAGLIFTSAAPAEA; listed as Bacillus subtilis) [compound 3921],SEQID-00103 mg/l/OD,,12.1 mg/l/OD
same,SEQID-00105 mg/l/OD,,135.7 mg/l/OD
same,SEQID-00338 mg/l/OD,,9.5 mg/l/OD
same,SEQID-00341 mg/l/OD,,148.14 mg/l/OD
same,Other SEQ IDs mg/l/OD,secreted SEQID-00405 fused to the signal peptide,3.1 mg/l/OD
3922 (MKRSISIFITCLLITLLTMGGMIASPASA; listed as Bacillus subtilis) [compound 3922],SEQID-00103 mg/l/OD,,12.1 mg/l/OD
same,SEQID-00105 mg/l/OD,,73.6 mg/l/OD
same,SEQID-00341 mg/l/OD,,33.9 mg/l/OD
same,SEQID-00352 mg/l/OD,,2.7 mg/l/OD
3923 (MRKKTKNRLISSVLSTVVISSLLFPGAAGA; listed as Bacillus subtilis) [compound 3923],SEQID-00341 mg/l/OD,,40.4 mg/l/OD
3924 (MRKNRILALFVLSLGLLSFMVTPVSA; listed as Bacillus subtilis) [compound 3924],SEQID-00338 mg/l/OD,,5.7 mg/l/OD
same,SEQID-00341 mg/l/OD,,41.9 mg/l/OD
same,Other SEQ IDs mg/l/OD,secreted SEQID-00398 fused to the signal peptide,5.5 mg/l/OD
3926 (MKSCKQLIVCSLAAILLLIPSVSFA; listed as Bacillus subtilis) [compound 3926],SEQID-00338 mg/l/OD,,3.4 mg/l/OD
3927 (MKKKLAAGLTASAIVGTTLVVTPAEA; listed as Bacillus subtilis) [compound 3927],SEQID-00103 mg/l/OD,,14.8 mg/l/OD
3929 (MRNLTKTSLLLAGLCTAAQMVFVTHASA; listed as Bacillus subtilis) [compound 3929],SEQID-00341 mg/l/OD,,37.5 mg/l/OD
3930 (MKRLCLWFTVFSLFLVLLPGKALG; listed as Bacillus subtilis) [compound 3930],SEQID-00341 mg/l/OD,,64.4 mg/l/OD
3931 (MKLKTKASIKFGICVGLLCLSITGFTPFFNSTHAEA; listed as Bacillus subtilis) [compound 3931],SEQID-00352 mg/l/OD,,2.8 mg/l/OD
3933 (MKKRKRRNFKRFIAAFLVLALMISLVPADVLA; listed as Bacillus subtilis) [compound 3933],SEQID-00338 mg/l/OD,,7 mg/l/OD
same,SEQID-00352 mg/l/OD,,2.14 mg/l/OD
3934 (MFKFKKNFLVGLSAALMSISLFSATASA; listed as Bacillus subtilis) [compound 3934],SEQID-00103 mg/l/OD,,13.4 mg/l/OD
same,SEQID-00105 mg/l/OD,,114.4 mg/l/OD
same,SEQID-00338 mg/l/OD,,9.8 mg/l/OD
same,SEQID-00341 mg/l/OD,,83.3 mg/l/OD
3935 (MKRMIVRMTLPLLIVCLAFSSFSASARA; listed as Bacillus subtilis) [compound 3935],SEQID-00352 mg/l/OD,,0.69 mg/l/OD
3936 (MKRITINIITMFIAAAVISLTGTAEA; listed as Bacillus subtilis) [compound 3936],SEQID-00341 mg/l/OD,,61.7 mg/l/OD
3937 (MRKKRVITCVMAASLTLGSLLPAGYASA; listed as Bacillus subtilis) [compound 3937],SEQID-00105 mg/l/OD,,135.6 mg/l/OD
3938 (MKKKQVMLALTAAAGLGLTALHSAPAAKA; listed as Bacillus subtilis) [compound 3938],SEQID-00103 mg/l/OD,,20.8 mg/l/OD
3939 (MKWMCSICCAAVLLAGGAAQA; listed as Bacillus subtilis) [compound 3939],SEQID-00103 mg/l/OD,,9.4 mg/l/OD
3940 (MKKELLASLVLCLSLSPLVSTNEVFA; listed as Bacillus subtilis) [compound 3940],SEQID-00105 mg/l/OD,,83.4 mg/l/OD
same,SEQID-00341 mg/l/OD,,80.2 mg/l/OD
3941 (MNFKKTVVSALSISALALSVSGVASA; listed as Bacillus subtilis) [compound 3941],SEQID-00103 mg/l/OD,,14.3 mg/l/OD
same,SEQID-00105 mg/l/OD,,152.7 mg/l/OD
3942 (MKRLFMKASLVLFAVVFVFAVKGAPAKA; listed as Bacillus subtilis) [compound 3942],SEQID-00103 mg/l/OD,,20 mg/l/OD
3943 (MLKKKWMVGLLAGCLAAGGFSYNAFA; listed as Bacillus subtilis) [compound 3943],SEQID-00341 mg/l/OD,,132.5 mg/l/OD
same,SEQID-00352 mg/l/OD,,2.23 mg/l/OD
3944 (MKKIGLLFMLCLAALFTIGFPAQQADA; listed as Bacillus subtilis) [compound 3944],SEQID-00103 mg/l/OD,,13.3 mg/l/OD
3945 (MRFTKVVGFLSVLGLAAVFPLTAQA; listed as Bacillus subtilis) [compound 3945],SEQID-00105 mg/l/OD,,124.3 mg/l/OD
3947 (MTLTKLKMLSMLTVMIASLFIFSSQALA; listed as Bacillus subtilis) [compound 3947],SEQID-00338 mg/l/OD,,6.3 mg/l/OD
3948 (MKRKLLSSLAISALSLGLLVSAPTASFAAE; listed as Bacillus subtilis) [compound 3948],Other SEQ IDs mg/l/OD,secreted SEQID-00404 fused to the signal peptide,2.5 mg/l/OD
3949 (MTKKAWFLPLVCVLLISGWLAPAASASA; listed as Bacillus subtilis) [compound 3949],SEQID-00352 mg/l/OD,,2.26 mg/l/OD
3950 (MRKSLITLGLASVIGTSSFLIPFTSKTASA; listed as Bacillus subtilis) [compound 3950],SEQID-00103 mg/l/OD,,14.6 mg/l/OD
same,SEQID-00105 mg/l/OD,,124.4 mg/l/OD
3951 (MKRIRIPMTLALGAALTIAPLSFASA; listed as Bacillus subtilis) [compound 3951],SEQID-00103 mg/l/OD,,17.7 mg/l/OD
3952 (MRKYTVIASILLSFLSVLSGG; listed as Bacillus subtilis) [compound 3952],SEQID-00103 mg/l/OD,,26.2 mg/l/OD
3953 (MKKLLTVMTMAVLTAGTLLLPAQSVTPAAHA; listed as Bacillus subtilis) [compound 3953],Other SEQ IDs mg/l/OD,secreted SEQID-403 fused to the signal peptide,3.4 mg/l/OD
3954 (MNKPTKLFSTLALAAGMTAAAAGGAGTIHA; listed as Bacillus subtilis) [compound 3954],SEQID-00105 mg/l/OD,,131 mg/l/OD
3955 (MVKSFRMKALIAGAAVAAAVSAGAVSDVPAAKVLQPTAAYA; listed as Bacillus subtilis) [compound 3955],SEQID-00352 mg/l/OD,,3.7 mg/l/OD
3956 (MKWNNMLKAAGIAVLLFSVFAYAAPSLKAVQA; listed as Bacillus subtilis) [compound 3956],SEQID-00338 mg/l/OD,,7.9 mg/l/OD
same,SEQID-00341 mg/l/OD,,41.5 mg/l/OD
same,SEQID-00352 mg/l/OD,,0.95 mg/l/OD
